Reference: US20180207269A1
Results are given in words; binding and its absence hold for the method and conditions named. Some entries that bind do so weakly or less than the wild type. For part of these data: Sequences can lack the tags named with a protein.

How the values were obtained:
[1] = biological target: T1, ILT3Fc (water-soluble recombinant protein: extracellular domain of human ILT3 affixed to the Fc portion of an immunoglobulin) (human) (UniProt Q8NHJ6+P01857); assay: ELISA, plates coated with 2, 4, 8, 16 ug/ml ILT3Fc, recombinant full length CD166 added, detected with anti-CD166 antibody
human CD6-Fc (human) [2] = biological target: T2, human CD6-Fc (human) (UniProt P30203); assay: ELISA, plates coated with 2, 4, 8, 16 ug/ml CD6-Fc (positive control), recombinant full length CD166 added, detected with anti-CD166 antibody
T2 sequence (looked up): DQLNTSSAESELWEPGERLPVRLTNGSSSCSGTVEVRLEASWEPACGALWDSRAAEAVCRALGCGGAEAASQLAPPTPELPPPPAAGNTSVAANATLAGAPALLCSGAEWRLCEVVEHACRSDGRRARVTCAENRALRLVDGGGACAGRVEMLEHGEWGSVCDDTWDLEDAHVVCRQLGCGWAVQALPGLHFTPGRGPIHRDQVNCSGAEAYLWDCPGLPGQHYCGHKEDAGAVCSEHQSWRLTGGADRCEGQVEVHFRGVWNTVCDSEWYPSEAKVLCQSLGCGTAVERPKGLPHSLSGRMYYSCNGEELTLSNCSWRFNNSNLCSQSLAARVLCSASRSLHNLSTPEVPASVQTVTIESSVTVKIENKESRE

[3] = biological target: T1, ILT3Fc (water-soluble recombinant protein: extracellular domain of human ILT3 affixed to the Fc portion of an immunoglobulin) (human); assay: ELISA, plates coated with 2, 4, 8, 16 ug/ml ILT3Fc, CD166-Fc added, detected with anti-CD166 antibody
human CD6-Fc (human) [4] = biological target: T2, human CD6-Fc (human); assay: ELISA, plates coated with 2, 4, 8, 16 ug/ml CD6-Fc (positive control), CD166-Fc added, detected with anti-CD166 antibody
human CD166Fc (human) = biological target: T3, human CD166Fc (human) (UniProt Q13740); assay: ELISA, CD6-Fc coated at 2-16 ug/mL, CD166Fc in solution, anti-CD166 detection
T3 sequence (looked up): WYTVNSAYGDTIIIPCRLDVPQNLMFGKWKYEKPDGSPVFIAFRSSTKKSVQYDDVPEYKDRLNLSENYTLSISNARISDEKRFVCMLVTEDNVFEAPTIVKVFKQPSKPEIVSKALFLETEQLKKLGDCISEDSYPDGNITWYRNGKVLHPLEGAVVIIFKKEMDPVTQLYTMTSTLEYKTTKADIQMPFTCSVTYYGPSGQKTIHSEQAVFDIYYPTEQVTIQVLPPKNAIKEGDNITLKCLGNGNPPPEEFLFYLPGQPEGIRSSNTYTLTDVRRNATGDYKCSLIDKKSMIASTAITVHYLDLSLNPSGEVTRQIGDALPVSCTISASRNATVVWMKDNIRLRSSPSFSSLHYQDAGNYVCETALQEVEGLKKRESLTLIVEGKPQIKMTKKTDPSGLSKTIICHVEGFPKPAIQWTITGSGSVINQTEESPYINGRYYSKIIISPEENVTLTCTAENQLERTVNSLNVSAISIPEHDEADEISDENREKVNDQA

[5] = biological target: T4, full length human CD166 protein (recombinant) (human) (UniProt Q13740); assay: ELISA, CD6-Fc coated at 2-16 ug/mL, full length CD166 in solution, anti-CD166 detection
T4 sequence (looked up): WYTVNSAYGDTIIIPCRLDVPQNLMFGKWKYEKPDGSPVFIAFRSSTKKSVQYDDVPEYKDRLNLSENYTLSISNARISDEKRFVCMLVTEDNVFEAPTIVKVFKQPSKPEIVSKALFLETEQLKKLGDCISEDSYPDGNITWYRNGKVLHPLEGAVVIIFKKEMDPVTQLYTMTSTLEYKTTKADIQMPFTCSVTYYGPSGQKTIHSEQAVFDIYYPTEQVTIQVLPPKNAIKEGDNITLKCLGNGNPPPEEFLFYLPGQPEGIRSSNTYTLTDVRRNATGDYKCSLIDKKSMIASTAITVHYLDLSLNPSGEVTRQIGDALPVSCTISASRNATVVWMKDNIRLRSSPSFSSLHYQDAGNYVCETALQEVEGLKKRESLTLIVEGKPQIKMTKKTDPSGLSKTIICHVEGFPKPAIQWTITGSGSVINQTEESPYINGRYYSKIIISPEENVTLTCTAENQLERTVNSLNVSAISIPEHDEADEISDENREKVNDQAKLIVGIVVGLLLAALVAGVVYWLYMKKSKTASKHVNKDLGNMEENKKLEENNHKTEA

B1: full length human CD166 protein (recombinant) (receptor, UniProt Q13740 28-583, looked up)
chain: WYTVNSAYGDTIIIPCRLDVPQNLMFGKWKYEKPDGSPVFIAFRSSTKKSVQYDDVPEYKDRLNLSENYTLSISNARISDEKRFVCMLVTEDNVFEAPTIVKVFKQPSKPEIVSKALFLETEQLKKLGDCISEDSYPDGNITWYRNGKVLHPLEGAVVIIFKKEMDPVTQLYTMTSTLEYKTTKADIQMPFTCSVTYYGPSGQKTIHSEQAVFDIYYPTEQVTIQVLPPKNAIKEGDNITLKCLGNGNPPPEEFLFYLPGQPEGIRSSNTYTLTDVRRNATGDYKCSLIDKKSMIASTAITVHYLDLSLNPSGEVTRQIGDALPVSCTISASRNATVVWMKDNIRLRSSPSFSSLHYQDAGNYVCETALQEVEGLKKRESLTLIVEGKPQIKMTKKTDPSGLSKTIICHVEGFPKPAIQWTITGSGSVINQTEESPYINGRYYSKIIISPEENVTLTCTAENQLERTVNSLNVSAISIPEHDEADEISDENREKVNDQAKLIVGIVVGLLLAALVAGVVYWLYMKKSKTASKHVNKDLGNMEENKKLEENNHKTEA
Which results are given for B1?
binding [1]: binds; binding (human CD6-Fc (human) [2]): binds

B2: human CD166Fc (Fc fusion, UniProt Q13740 28-526, looked up, not shown: a dimerising Fc or GST)
chain: WYTVNSAYGDTIIIPCRLDVPQNLMFGKWKYEKPDGSPVFIAFRSSTKKSVQYDDVPEYKDRLNLSENYTLSISNARISDEKRFVCMLVTEDNVFEAPTIVKVFKQPSKPEIVSKALFLETEQLKKLGDCISEDSYPDGNITWYRNGKVLHPLEGAVVIIFKKEMDPVTQLYTMTSTLEYKTTKADIQMPFTCSVTYYGPSGQKTIHSEQAVFDIYYPTEQVTIQVLPPKNAIKEGDNITLKCLGNGNPPPEEFLFYLPGQPEGIRSSNTYTLTDVRRNATGDYKCSLIDKKSMIASTAITVHYLDLSLNPSGEVTRQIGDALPVSCTISASRNATVVWMKDNIRLRSSPSFSSLHYQDAGNYVCETALQEVEGLKKRESLTLIVEGKPQIKMTKKTDPSGLSKTIICHVEGFPKPAIQWTITGSGSVINQTEESPYINGRYYSKIIISPEENVTLTCTAENQLERTVNSLNVSAISIPEHDEADEISDENREKVNDQA
B2 was tested. Which binding [3] did it give?
The binding was “binds”.

What about the binding (human CD6-Fc (human) [4]) of the same binder?
Its binding is “binds”.

B3: human CD6-Fc (Fc fusion, UniProt P30203 25-398, looked up, not shown: a dimerising Fc or GST)
chain: DQLNTSSAESELWEPGERLPVRLTNGSSSCSGTVEVRLEASWEPACGALWDSRAAEAVCRALGCGGAEAASQLAPPTPELPPPPAAGNTSVAANATLAGAPALLCSGAEWRLCEVVEHACRSDGRRARVTCAENRALRLVDGGGACAGRVEMLEHGEWGSVCDDTWDLEDAHVVCRQLGCGWAVQALPGLHFTPGRGPIHRDQVNCSGAEAYLWDCPGLPGQHYCGHKEDAGAVCSEHQSWRLTGGADRCEGQVEVHFRGVWNTVCDSEWYPSEAKVLCQSLGCGTAVERPKGLPHSLSGRMYYSCNGEELTLSNCSWRFNNSNLCSQSLAARVLCSASRSLHNLSTPEVPASVQTVTIESSVTVKIENKESRE
Which results are given for B3?
binding (human CD166Fc (human)): binds; binding [5]: binds
